PMC3396603
These are yes or no findings as the source states them, for the method shown. Binding seen in cells or lysates may run through a third protein. Some binding calls cover weakened binding; strength is not graded here.

Amino acid sequences for entries named in this document (tags omitted). Residues count along the entry.
UniProt Q9QUN7, residues 25-784: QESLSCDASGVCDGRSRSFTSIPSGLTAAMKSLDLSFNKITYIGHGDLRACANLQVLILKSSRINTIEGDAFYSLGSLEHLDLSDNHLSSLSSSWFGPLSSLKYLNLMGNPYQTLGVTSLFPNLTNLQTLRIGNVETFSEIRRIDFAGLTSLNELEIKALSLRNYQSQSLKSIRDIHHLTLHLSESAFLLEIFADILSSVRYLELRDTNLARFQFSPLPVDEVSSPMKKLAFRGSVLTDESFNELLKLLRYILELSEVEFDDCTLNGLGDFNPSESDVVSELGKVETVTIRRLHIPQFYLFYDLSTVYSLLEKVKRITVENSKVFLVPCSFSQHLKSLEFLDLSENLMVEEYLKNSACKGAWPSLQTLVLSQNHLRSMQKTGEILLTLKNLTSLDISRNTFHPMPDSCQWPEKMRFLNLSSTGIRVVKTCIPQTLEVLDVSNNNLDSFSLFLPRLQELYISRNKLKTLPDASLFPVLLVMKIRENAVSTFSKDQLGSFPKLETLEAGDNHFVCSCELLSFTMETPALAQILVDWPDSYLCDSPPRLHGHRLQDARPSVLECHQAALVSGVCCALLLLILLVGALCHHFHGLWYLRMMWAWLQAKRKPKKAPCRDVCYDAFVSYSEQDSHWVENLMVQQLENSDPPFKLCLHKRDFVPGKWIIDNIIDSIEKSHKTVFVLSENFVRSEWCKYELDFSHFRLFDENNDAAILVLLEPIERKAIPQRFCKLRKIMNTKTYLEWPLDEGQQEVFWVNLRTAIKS
UniProt P63158: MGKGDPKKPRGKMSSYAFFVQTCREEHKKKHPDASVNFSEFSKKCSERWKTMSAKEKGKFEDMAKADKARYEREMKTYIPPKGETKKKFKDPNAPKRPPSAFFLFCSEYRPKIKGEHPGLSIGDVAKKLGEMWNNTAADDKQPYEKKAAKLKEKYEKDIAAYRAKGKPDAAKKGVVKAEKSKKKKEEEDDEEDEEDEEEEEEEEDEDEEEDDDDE

Molecular target: toll-like receptor (TLR) 2 (mouse (endogenous in mouse heart)) (UniProt Q9QUN7)
Assay: co-IP; heart homogenates in 1x RIPA buffer with PMSF and protease inhibitors; HMGB1 or TLR2 antibody (2 ug) in 700 ul lysate, Protein A/G PLUS-Agarose, 4°C, 5 washes with RIPA, immunoblot; mice treated beforehand with saline, or Dox and IgG, TLR2Ab or TLR4Ab

binding: binds
Substance: high mobility group box (HMGB)1 (from UniProt P63158 1-215) (ligand)
